PubChem BioAssay AID504834 (National Center for Advancing Translational Sciences (NCATS), 2011)
In all, about 320,000 compounds went through this assay and about 22,000 (6.9%) were called active. The inconclusive results got no clear call from the source; some entries with a clear call stand among them for comparison. Calls follow the shape of the dose curve; as a rule, active = well fitted inhibition curve with a large enough effect; inconclusive = small, poorly fitted or top-dose-only effect, or another doubt; inactive = no such curve, though single readings can be large or run the other way. A potency beside an inconclusive call is a rough fit, not a confirmed value.

Experiment: Primary qHTS for delayed death inhibitors of the malarial parasite plastid, 96 hour incubation
Conditions: P. falciparum luciferase reporter growth; series mostly up to 28.7 µM; activity change, negative = inhibition: at the top concentration
Summary of the method: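 P. falciparum expressing integrated firefly luciferase, in erythrocytes at 2% hematocrit, 0.05% parasitemia, incubated with compounds 96 h at 37 C, 5% CO2. Growth inhibition read as loss of luminescence; two-generation exposure targets delayed-death apicoplast inhibitors.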
% is scaled to controls: 0 for no effect and ±100 for the full control effect; potency is read from the fitted curve at half-maximal effect.

| SMILES | Potency | activity change, negative = inhibition |
| --- | --- | --- |
| Cc1ccc(Cn2c(/C=C/c3ccco3)nc3ccccc32)cc1 | inconclusive: 14.7 µM [inhibitor, single point] |  |
| O=C(COC(=O)c1ccc(Br)o1)NCc1ccc(F)cc1 | inconclusive: 16.5 µM [inhibitor, single point] |  |
| COc1ccc(C(=O)C2CCCN(Cc3cccn3-c3nccs3)C2)cc1OC (configuration not stated) | inconclusive: 18.5 µM [inhibitor, single point] |  |
| CCCCC(=O)Nc1cc([N+](=O)[O-])ccc1F | inconclusive: 3.29 µM [inhibitor, partial curve, poor fit] |  |
| COc1ccccc1N1CCN(C(=O)C(=O)c2cn(CC(=O)N3CCCCCC3)c3ccccc23)CC1 | active: 7.38 µM |  |
| Cc1cccc(NC(=O)c2nc[nH]c2C(=O)N[C@H](C)c2ccccc2)c1 | inconclusive: 16.5 µM [inhibitor, single point] |  |
| N#Cc1ccccc1Sc1ccccc1C(=O)OCc1nnc(-c2ccccc2)o1 | inconclusive: 2.62 µM [inhibitor, single point] |  |
| CSc1nc(N)nc(SCC(=O)Nc2cccc(F)c2)c1C#N |  | inactive: -6.4% |
| O=C(NCCc1c[nH]c2ccccc12)/C(=C/c1cccnc1)NC(=O)c1ccccc1 |  | inactive: 19.4% |
| CC(=O)c1ccccc1OC(=O)COc1ccc(Cl)cc1C |  | inactive: -18.5% |
| CCN1C(=NCc2ccc(OC)cc2)N[C@@H](c2ccccc2)[C@H](C(=O)OC)[C@H]1C | inconclusive: 7.38 µM [inhibitor, partial curve, poor fit] |  |
| COc1ccc(Nc2nc(C)nc3sc4c(c23)CCC4)cc1O | inconclusive: 18.5 µM [inhibitor, single point] |  |
| CCCC(=O)NC(=S)Nc1cccc(NC(=O)c2ccccc2)c1 | inconclusive: 18.5 µM [inhibitor, single point] |  |
| O=S(=O)(Nc1nc2ccccc2nc1N1CCN(CCO)CC1)c1cc(F)ccc1F | inconclusive: 1.65 µM [inhibitor, full curve] |  |
| CCOC(=O)C1=C(C)NC(C)=C(C(=O)OCC)C1c1ccccc1C=CC(=O)OC(C)(C)C | active: 8.49 µM |  |
| CSCCC(NS(=O)(=O)c1ccc2c(c1)oc(=O)n2C)C(=O)NCc1ccccc1 (configuration not stated) |  | inactive: 7.38% |
| COc1ccc(-c2cc(C(=O)Nc3cccc(O)c3)no2)cc1 |  | inactive: 9.54% |
| CC(C)(C)c1ccc(OC2=CS(=O)(=O)c3ccccc32)cc1 | active: 9.28 µM |  |
| C#CCOCCOCCOCCNc1nc(N2CCN(C(=O)CCCCCCCCCCNC(=O)Cn3cc(C[C@@H](C)O)nn3)CC2)nc(N2CCN(C(=O)CCCCCCCCCCNC(=O)[C@@H]([C@H](C)O)n3cc(C)nn3)CC2)n1 | active: 0.0828 µM |  |
| Cc1nn(-c2ccccc2)c2sc(C(=O)N(Cc3ccco3)C(C)C(=O)NC(C)(C)C)cc12 (configuration not stated) | inconclusive: 10.4 µM [inhibitor, partial curve, poor fit] |  |
| CCOC(=O)c1csc(NC(=O)CSc2nnnn2-c2ccc(OC)c(OC)c2)n1 | inconclusive: 4.15 µM [inhibitor, single point] |  |
| CCOC(=O)[C@@H]1[C@H]2COc3ccccc3[C@H]2N2C(=O)N(c3cccc(F)c3)C(=O)[C@]12C | inconclusive: 9.28 µM [inhibitor, partial curve, poor fit] |  |
| COC(=O)c1nn(-c2ccc(C)cc2)ccc1=O |  | inactive: 28.1% |

| SMILES | Potency | activity change, negative = inhibition |
| --- | --- | --- |
| Cc1ccc(Sc2cnn(-c3ccccc3)c(=O)c2Cl)cc1 | inconclusive: 18.5 µM [inhibitor, single point] |  |
| O=C(O)COCC(=O)NCc1nc(-c2ccc(C(F)(F)F)cc2)no1 |  | inactive: 30.8% |
| CCn1c(SCC(=O)NCc2ccccc2)nnc1-c1cccnc1 | inconclusive: 13.1 µM [inhibitor, single point] |  |
| Cc1ccc(C)c(SCC(=O)Nc2ccc(C)c(S(=O)(=O)N3CCOCC3)c2)c1 | inconclusive: 18.5 µM [inhibitor, single point] |  |
| O=C(Cc1ccc(Cl)c(Cl)c1)NNC(=S)NCC1CCCO1 (configuration not stated) | inconclusive: 13.1 µM [inhibitor, single point] |  |
| Cn1cnc([N+](=O)[O-])c1Cl | inconclusive: 18.5 µM [inhibitor, single point] |  |
| Cc1ccc(CNCC(O)(c2ccccc2)c2ccc(Cl)cc2)cc1 (configuration not stated) | active: 1.65 µM |  |
| COc1ccc(N2C(=O)CCC(C(=O)Nc3cccc(C)n3)C2c2ccc(OC)c(OC)c2)cc1 (configuration not stated) | inconclusive: 0.0415 µM [inhibitor, full curve, poor fit] |  |
| COc1ccc(OCc2nnc(SCC(=O)N3CCCCC3)o2)cc1 | active: 11.7 µM |  |
| O=C(CN1CCN(c2ccccn2)CC1)Nc1cccc(F)c1 |  | inactive: 9% |
| CCC(=O)c1ccc(OCC(=O)N2CCN(C(=O)c3ccccc3)CC2)cc1 | inconclusive: 18.5 µM [inhibitor, single point] |  |
| Cn1cc(/C=C(\NC(=O)c2ccccc2)C(=O)NCCN2CCOCC2)c2ccccc21 | inconclusive: 18.5 µM [inhibitor, single point] |  |
| COc1cccc(CNC(=O)c2cccc(NC(=O)CC3SC(N4CCCCC4)=NC3=O)c2)c1 (configuration not stated) | inconclusive: 13.1 µM [inhibitor, single point] |  |
| COc1ccccc1C(=O)NC(=O)COC(=O)CCS(=O)(=O)c1ccc(C)cc1 | inconclusive: 1.85 µM [inhibitor, partial curve, poor fit] |  |
| CC(=O)c1ccc(OCCCC(=O)n2nnc3ccccc32)cc1 | inconclusive: 20.8 µM [inhibitor, partial curve, poor fit] |  |
| O=C(NN=C1CCCC1)c1ccccc1OCCOc1ccccc1 | inconclusive: 10.4 µM [inhibitor, partial curve, poor fit] |  |
| Cc1c(C#N)c2ccccc2n1C |  | inactive: -9.13% |
| COc1ccc(OC)c(C2C(C(=O)Nc3nc4ccccc4s3)=C(C)NC3=C2C(=O)CCC3)c1 (configuration not stated) | inconclusive: 16.5 µM [inhibitor, single point] |  |
| O=C(CSc1nnc(-c2ccco2)o1)NC1CCCCCC1 |  | inactive: 0.838% |
| CCC(C)(C)C1CCc2[nH]nc(C(=O)NCC3CC3)c2C1 (configuration not stated) | inconclusive: 18.5 µM [inhibitor, single point] |  |
| Cc1ccc(Cl)cc1NC(=S)N(Cc1cccs1)C1CCCC1 | inconclusive: 0.522 µM [inhibitor, full curve, poor fit] |  |
| COCCn1c(SCC(=O)N2CCCC2)nc2c([nH]c3ccccc32)c1=O | inconclusive: 3.7 µM [inhibitor, partial curve, poor fit] |  |
| CN1CCOCCOCCN(C)C1=O |  | inactive: 44.7% |

A second format for part of the listing above:
SMILES | Potency | activity change, negative = inhibition
COc1ccccc1N1CCN(C(=O)C(=O)c2cn(CC(=O)N3CCCCCC3)c3ccccc23)CC1 | active: 7.38 µM | 
O=C(NN=C1CCCC1)c1ccccc1OCCOc1ccccc1 | inconclusive: 10.4 µM [inhibitor, partial curve, poor fit] | 

The listing continues:

| SMILES | Potency | activity change, negative = inhibition |
| --- | --- | --- |
| CCn1c(C)c(C(C)=O)c(SC)nc1=S |  | inactive: 22.5% |
| Cc1ccc(F)cc1NC(=O)c1sc2ncn(CC(=O)N3CCN(c4ccccn4)CC3)c(=O)c2c1C | active: 14.7 µM |  |
| COC(CNC(=O)CCc1c(C)nc2c(-c3ccc(F)cc3)c(C)nn2c1C)OC | inconclusive: 4.15 µM [inhibitor, partial curve, poor fit] |  |
| O=C(NCc1ccc2c(c1)OCO2)c1ccccn1 |  | inactive: 36.9% |
| CC1CCCN(S(=O)(=O)c2ccc(C(=O)Nc3nnc(-c4ccccn4)o3)cc2)C1 (configuration not stated) | inconclusive: 0.0928 µM [inhibitor, full curve, poor fit] |  |
| COc1ccccc1N1CCN(C2CCCN(C(=O)Cn3cccn3)C2)CC1 (configuration not stated) | inconclusive: 18.5 µM [inhibitor, single point] |  |
| FCCCOc1ccc(/C=N/OCc2ccc(Cl)cc2)cc1 | inconclusive: 6.57 µM [inhibitor, partial curve, poor fit] |  |
| Cc1cccc(C(=O)NC(C(=O)Nc2nc(-c3ccccn3)cs2)C(C)C)c1 (configuration not stated) | inconclusive: 18.5 µM [inhibitor, single point] |  |
| CCCOc1ccc([N+](=O)[O-])cc1C1NC(=S)NC(c2ccccc2)=C1C(=O)OCC (configuration not stated) | inconclusive: 11.7 µM [inhibitor, single point] |  |
| CCOc1ccccc1NC(=O)CSc1nnnn1-c1ccc(C(=O)OC)cc1 | active: 4.15 µM |  |
| O=C1OCC=C1NNC(=O)c1cccnc1 | inconclusive: 18.5 µM [inhibitor, single point] |  |
| COc1ccc(C(=O)Nc2ccc(NC(=O)C3CC3)cn2)cc1 | inconclusive: 11.7 µM [inhibitor, partial curve] |  |
| CCN(CC)S(=O)(=O)c1ccc(NC(=O)CN(c2cccc(C)c2)S(C)(=O)=O)cc1 | inconclusive: 18.5 µM [inhibitor, single point] |  |
| O=C(Nc1ccc(F)cc1)C1CCN(C(=O)c2ccc([N+](=O)[O-])cc2)CC1 |  | inactive: 31.7% [at 5.75 µM] |
| C=CCCC(=O)NC1CC(C)(C)Cc2c1cnn2-c1cccc(F)c1 (configuration not stated) | inconclusive: 18.5 µM [inhibitor, single point] |  |
| CSc1ccccc1NC(=O)Cn1nc([N+](=O)[O-])cc1C | active: 0.185 µM |  |
| O=c1c2c(-c3ccc(Cl)cc3)csc2nc2n1CCC2 | inconclusive: 11.7 µM [inhibitor, single point] |  |
| CC(C)=CCN1CCN(Cc2cnc(N3CCOCC3)s2)CC1CCO (configuration not stated) | active: 11.7 µM |  |
| O=C(N/N=C/c1cc2cc3c(cc2nc1Cl)OCCO3)c1ccccc1O | inconclusive: 18.5 µM [inhibitor, single point] |  |
| CCCCn1c(SCC(=O)c2ccc3c(c2)NC(=O)CO3)nc2cc(S(N)(=O)=O)ccc21 | inconclusive: 0.0415 µM [inhibitor, full curve, poor fit] |  |
| N#Cc1cc2c(nc1SC1CCCCC1O)CCCC2 (configuration not stated) | inconclusive: 0.465 µM [inhibitor, partial curve, poor fit] |  |

A different layout for some results above.
SMILES	Potency	activity change, negative = inhibition
COC(CNC(=O)CCc1c(C)nc2c(-c3ccc(F)cc3)c(C)nn2c1C)OC	inconclusive: 4.15 µM [inhibitor, partial curve, poor fit]	
Cc1cccc(C(=O)NC(C(=O)Nc2nc(-c3ccccn3)cs2)C(C)C)c1 (configuration not stated)	inconclusive: 18.5 µM [inhibitor, single point]	
O=C(Nc1ccc(F)cc1)C1CCN(C(=O)c2ccc([N+](=O)[O-])cc2)CC1		inactive: 31.7% [at 5.75 µM]
